US20250051456A1
These are yes or no findings as the source states them, for the method shown. Some entries that bind do so weakly or less than the wild type.

Tests used:
[1] = target: human HLA-G (form not named; printed as "human anti-HLA-G" in paragraph 257) (human) (UniProt P17693); experiment: screening of antibodies from immunized rats; method not given
[2] = target: human HLA-G (form not named; printed as "human anti-HLA-G" in paragraph 257) (human) (UniProt P17693); experiment: blocking ELISA: biotinylated HLAG on streptavidin plate, anti-HLAG antibody added first, then recombinant CD8a (blocked ligand), detected with HRP anti-CD8a; antibody concentration not given

B1: HLA-G-0031 (antibody, V domains shown)
VH: QVKLMQSGAALVKPGTSVKMSCNASGYTFTDYWVSWVKQSHGKRLEWVGEISPNSGASNFDENFKDKATLTVDKSTSTAYMELSRLTSEDSAIYYCTRSSHGSFRWFAYWGQGTLVTVSS
VL: AIVLNQSPSSIVASQGEKVTITCRASSSVSSNHLHWYQQKPGAFPKFVIYSTSQRASGIPSRFSGSGSGTSYSFTISRVEAEDVATYYCQQGSSNPYTFGAGTKLELK
In the case of B1, the binding [1] is reported as “binds” and the binding [2] is reported as “binds”.
